Part of at least one peptide drawing is inferred or uncertain, most often the ends. Bridge positions count the residues as written; N and C are the ends. Peptide text beside a SMILES is read from it.
Experiments:
Format in all cases: cell-based
LNCaP = assay: Comparison of CTx-D and Loop 1 toxicity (% killing), LNCaP
DU-145 = assay: Comparison of CTx-D and Loop 1 toxicity (% killing), DU-145
R3327 = assay: Comparison of CTx-D and Loop 1 toxicity (% killing), R3327
PC-3 = assay: Comparison of CTx-D and Loop 1 toxicity (% killing), PC-3
AY-27 = assay: Comparison of CTx-D and Loop 1 toxicity (% killing), AY-27
CEM-2 = assay: Comparison of CTx-D and Loop 1 toxicity (% killing), CEM-2
CEM-4 = assay: Comparison of CTx-D and Loop 1 toxicity (% killing), CEM-4
[1] = Cytotoxic activity / potency stated in text

CC(C)C[C@@H]1NC(=O)[C@H](CCCCN)NC(=O)[C@H](CC(N)=O)NC(=O)[C@@H](NC(=O)[C@H](CCCCN)NC(=O)[C@@H](N)CC(C)C)CSSC[C@@H](C(=O)O)NC(=O)[C@H]([C@@H](C)O)NC(=O)[C@H](CCCCN)NC(=O)[C@H](Cc2ccc(O)cc2)NC(=O)[C@H](Cc2ccccc2)NC(=O)[C@H](CC(C)C)NC(=O)[C@@H]2CCCN2C(=O)[C@H](C(C)C)NC1=O [L1, Leu-Lys-Cys-Asn-Lys-Leu-Val-Pro-Leu-Phe-Tyr-Lys-Thr-Cys] (H-LKCNKLVPLFYKTC-OH; disulfide 3-14)
% killing (LNCaP; 10 μM): 0%
% killing (LNCaP; 20 μM): 25%
% killing (LNCaP; 40 μM): 29%
% killing (LNCaP; 80 μM): 42%
% killing (DU-145; DU-145, 10 μM): 21%
% killing (DU-145; DU-145, 20 μM): 23%
% killing (DU-145; DU-145, 40 μM): 45%
% killing (DU-145; DU-145, 80 μM): 42%
% killing (R3327; R3327, 10 μM): 0%
% killing (R3327; R3327, 20 μM): 8%
% killing (R3327; R3327, 40 μM): 12%
% killing (R3327; R3327, 80 μM): 23%
% killing (PC-3; PC-3, 10 μM): 22%
% killing (PC-3; PC-3, 20 μM): 26%
% killing (PC-3; PC-3, 40 μM): 26%
% killing (PC-3; PC-3, 80 μM): 29%
% killing (AY-27; AY-27, 10 μM): 0%
% killing (AY-27; AY-27, 20 μM): 4%
% killing (AY-27; AY-27, 40 μM): 32%
% killing (AY-27; AY-27, 80 μM): 60%
% killing (CEM-2; CEM-2, 10 μM): 22%
% killing (CEM-2; CEM-2, 20 μM): 10%
% killing (CEM-2; CEM-2, 40 μM): 12%
% killing (CEM-2; CEM-2, 80 μM): 4%
% killing (CEM-4; CEM-4, 10 μM): 0%
% killing (CEM-4; CEM-4, 20 μM): 4%
% killing (CEM-4; CEM-4, 40 μM): 12%
% killing (CEM-4; CEM-4, 80 μM): 13%
potency relative to whole CTx-D [1]: much lower potency than that of whole CTx-D itself
